Data reported in PMC10397244, “BIK1 protein homeostasis is maintained by the interplay of different ubiquitin ligases in immune signaling” (Nature Communications, 2023).
No constants are given. Whether binding was seen depends on the method and setting. Binding seen in cells or lysates may run through a third protein. Binding can be weak; no strength is given. Sequences can lack the tags named with a protein.

Protein sequences, listed by entry. Tags and fused reporters are not part of them. Lines headed by an entry give the natural chain unless they say otherwise; changes in a name come on top.
UniProt F4JJ02: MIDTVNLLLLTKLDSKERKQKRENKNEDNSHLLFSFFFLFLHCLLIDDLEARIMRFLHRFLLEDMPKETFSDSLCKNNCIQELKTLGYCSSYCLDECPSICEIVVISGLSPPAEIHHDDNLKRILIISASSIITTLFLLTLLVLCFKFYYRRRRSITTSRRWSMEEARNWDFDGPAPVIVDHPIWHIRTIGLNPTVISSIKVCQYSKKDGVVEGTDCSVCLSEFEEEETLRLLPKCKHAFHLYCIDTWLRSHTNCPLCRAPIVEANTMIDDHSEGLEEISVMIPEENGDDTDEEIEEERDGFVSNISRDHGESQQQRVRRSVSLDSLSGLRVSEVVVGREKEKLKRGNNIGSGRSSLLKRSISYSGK

Molecular target: T1, BIK1-CLuc (Arabidopsis thaliana) (UniProt O48814)
T1 sequence: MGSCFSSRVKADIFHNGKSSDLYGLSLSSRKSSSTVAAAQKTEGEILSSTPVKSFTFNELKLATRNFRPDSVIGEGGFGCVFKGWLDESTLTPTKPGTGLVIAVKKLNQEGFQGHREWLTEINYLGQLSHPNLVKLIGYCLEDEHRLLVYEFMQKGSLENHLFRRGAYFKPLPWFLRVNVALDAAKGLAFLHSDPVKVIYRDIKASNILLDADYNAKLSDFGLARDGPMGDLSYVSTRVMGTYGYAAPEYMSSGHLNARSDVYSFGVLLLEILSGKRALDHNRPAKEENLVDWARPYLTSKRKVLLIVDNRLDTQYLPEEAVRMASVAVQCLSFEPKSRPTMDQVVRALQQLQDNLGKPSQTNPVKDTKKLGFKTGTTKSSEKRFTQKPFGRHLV
Test: split reporter; split-luciferase complementation; CLuc and NLuc fusions co-infiltrated into N. benthamiana leaves, luminescence two days later; with or without 5 uM flg22 for 30 min

## ATL83-NLuc (from UniProt F4JJ02)
  binding: binds
